The values below come from article PMC4773855.

Substitutions are numbered along the chain they refer to. Names may count otherwise. No constants are given. Whether binding was seen depends on the method and setting. Binding seen in cells or lysates may run through a third protein. Binding calls can cover weak binding; strength is not graded here. Tags and fused reporters may be left off the sequences shown.

For the test, the target named is endogenous Akt (human (endogenous in HLFs)). The test can be described thus: co-IP; HLF lysate (50 mM Tris-HCl pH 7.5, 150 mM NaCl, 0.5% NP-40, 1 mM DTT); immunoprecipitation with anti-Akt antibody or control antibody for 3 h at 4 °C, protein A/G-agarose beads; Western blot with anti-HA antibody.

B1: HA-tagged full-length wild type human LARP6 (La ribonucleoprotein domain family, member 6) (protein, UniProt Q9BRS8 1-491)
chain: MAQSGGEARPGPKTAVQIRVAIQEAEDVDELEDEEEGAETRGAGDPARYLSPGWGSASEEEPSRGHSGTTASGGENEREDLEQEWKPPDEELIKKLVDQIEFYFSDENLEKDAFLLKHVRRNKLGYVSVKLLTSFKKVKHLTRDWRTTAHALKYSVVLELNEDHRKVRRTTPVPLFPNENLPSKMLLVYDLYLSPKLWALATPQKNGRVQEKVMEHLLKLFGTFGVISSVRILKPGRELPPDIRRISSRYSQVGTQECAIVEFEEVEAAIKAHEFMITESQGKENMKAVLIGMKPPKKKPAKDKNHDEEPTASIHLNKSLNKRVEELQYMGDESSANSSSDPESNPTSPMAGRRHAATNKLSPSGHQNLFLSPNASPCTSPWSSPLAQRKGVSRKSPLAEEGRLNCSTSPEIFRKCMDYSSDSSVTPSGSPWVRRRRQAEMGTQEKSPGTSPLLSRKMQTADGLPVGVLRLPRGPDNTRGFHGHERSRACV
Regarding B1, the binding entry is “binds”.

B2: HA-tagged LARP6 S451A mutant (protein, UniProt Q9BRS8 1-491)
chain: B1 chain with S451A
B2: the binding result was “binds”.
